Data: US20190161517A1 (ENSOL BIOSCIENCES, published 2019)
No constants are given. Whether binding was seen depends on the method and setting. Some results given as binding are weak or reduced against the parent protein; the word gives no strength.

Amino acid sequences for entries named in this document (tags omitted). A change or cut given only in a name is not applied to a line headed by its entry. Residues count along the entry.
UniProt Q15109, residues 23-342: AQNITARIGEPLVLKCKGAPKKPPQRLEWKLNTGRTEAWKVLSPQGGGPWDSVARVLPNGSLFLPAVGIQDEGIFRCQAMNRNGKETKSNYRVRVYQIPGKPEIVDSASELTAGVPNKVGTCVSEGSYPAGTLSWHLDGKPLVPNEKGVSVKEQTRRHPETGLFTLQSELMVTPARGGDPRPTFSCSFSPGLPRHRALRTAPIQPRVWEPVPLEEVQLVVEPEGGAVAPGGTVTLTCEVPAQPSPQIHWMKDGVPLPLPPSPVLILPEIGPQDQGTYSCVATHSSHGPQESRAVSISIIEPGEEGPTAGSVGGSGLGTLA

Target: extracellular domain recombinant protein RAGE (11629-H08H, Sino Biological Inc.) (UniProt Q15109)
Assay: MST (Microscale Thermophoresis)

B1: peptide of Example 1 (DGEFF) (peptide)
peptide: DGEFF
notes: Synthetic peptide made by AnyGen Co., Ltd
Q: With B1 as the binder, how does the binding read?
A: Its binding is “binds”.
